Assay results taken from patent US20050256302A1, “Novel peptides having camp producing activity” (Japan Science and Technology Agency, priority 2002, published 2005).
Where a SMILES comes first, the peptide text is derived from it. Bridges are numbered along the chain shown (N, C = ends).

Assay: Concentration of CRSP in tissues by radioimmunoassay
Design: species or system pig
Details: mean ± standard error (n = 3)

For CSCC[C@H](NC(=O)[C@H](CCCCN)NC(=O)[C@@H](NC(=O)[C@@H]1CCCN1C(=O)[C@H](CC(C)C)NC(=O)[C@H](CC(C)C)NC(=O)[C@H](CC(N)=O)NC(=O)[C@H](CO)NC(=O)[C@H](CCCNC(=N)N)NC(=O)[C@@H](NC(=O)[C@H](CCSC)NC(=O)[C@H](CO)NC(=O)CNC(=O)[C@H](CO)NC(=O)[C@H](CCCNC(=N)N)NC(=O)[C@H](CO)NC(=O)[C@H](CC(C)C)NC(=O)[C@H](CC(C)C)NC(=O)CNC(=O)[C@@H](NC(=O)[C@H](CC(C)C)NC(=O)[C@H](CCCNC(=N)N)NC(=O)[C@H](Cc1c[nH]cn1)NC(=O)[C@@H](NC(=O)[C@H](CCSC)NC(=O)[C@@H]1CSSC[C@H](NC(=O)[C@@H](N)CO)C(=O)N[C@@H](CC(N)=O)C(=O)N[C@@H]([C@@H](C)O)C(=O)N[C@@H](C)C(=O)N[C@@H]([C@@H](C)O)C(=O)N1)[C@@H](C)O)C(C)C)C(C)C)[C@@H](C)O)C(=O)NCC(=O)N[C@@H](Cc1ccccc1)C(=O)N[C@@H](CCCCN)C(=O)N[C@H](C(=O)N[C@@H](Cc1ccccc1)C(=O)NCC(N)=O)C(C)C [CRSP] (H-SCNTATCMTHRLVGLLSRSGSMVRSNLLPTKMGFKVFG-NH2; disulfide 2-7), the “Immunoactivity of CRSP” value (pig Adrenal gland) was 0.42 ± 0.05 pmol/g tissue, the “Immunoactivity of CRSP” value (pig Anterior pituitary) was 14 ± 2 pmol/g tissue and the “Immunoactivity of CRSP” value (pig Aorta) was 0.33 ± 0.19 pmol/g tissue. For the same compound, the “Immunoactivity of CRSP” value (pig Cardiac atrium) was 0.20 ± 0.04 pmol/g tissue, the “Immunoactivity of CRSP” value (pig Cardiac ventricle) was 0.21 ± 0.09 pmol/g tissue and the “Immunoactivity of CRSP” value (pig Caudatum) was 1.3 ± 0.1 pmol/g tissue. For the same compound, the “Immunoactivity of CRSP” value (pig Cerebellum) was 0.18 ± 0.02 pmol/g tissue, the “Immunoactivity of CRSP” value (pig Cerebral cortex) was 0.29 ± 0.04 pmol/g tissue and the “Immunoactivity of CRSP” value (pig Hippocampus) was 0.78 ± 0.16 pmol/g tissue. For the same compound, the “Immunoactivity of CRSP” value (pig Hypothalamus) was 9.9 ± 1.2 pmol/g tissue, the “Immunoactivity of CRSP” value (pig Kidney/Cortex) was 0.12 ± 0.01 pmol/g tissue and the “Immunoactivity of CRSP” value (pig Kidney/Medulla) was 0.088 ± 0.039 pmol/g tissue. The “Immunoactivity of CRSP” value (pig Thyroid gland) was 68 ± 39 pmol/g tissue.
